This is an account of results in patent US20260385973A1, “CARBON MONOXIDE PROBE MOLECULES” (published 2026).

“Also recorded” adds a separate entry of the source. For part of its entries the source gives two or more results. The list is limited to them. The source may hold further records. Results that share an entry differ, and nothing given here explains why; some may be repeats, others may stem from another dose, organism or construct than stated.

One assay has as its system COHb. Put plainly: COHb level determination in CO-treated mouse blood ex vivo. Conditions: CO-saturated blood from five mice, CO-oximeter.
A short description of assay [1]: Reaction of probe with thiol species (LC-MS, NMR). As to conditions: GSH or H2S (NaHS) in PBS, or NaHS (2 equivalents) in DMA.
Assay [2] can be described thus: Conversion of probe to fluorescent product on reaction with CO. Conditions: CO gas; PBS, or DMA diluted with PBS.

In the case of `[C-]#[O+]`, the “COHb level of CO-saturated blood” value with COHb was 90% and about 90%.
“(2-(butylcarbamoyl)-3-hydroxyphenyl)(N^1,N^1,N^2,N^2-tetramethylethylenediamine) palladacycle trifluoromethanesulfonate salt”: the “Reaction with thiol species” value in assay [1] is “the depalladation species (17) was formed; also recorded: gave 17 as the major product”. In assay [2], the “Conversion to fluorescent product / fluorescence recovery with CO” value is “the phthalimide fluorescent product 22 was formed as the major product; also recorded: the fluorescence intensity was the same as 22 at the same concentration”.
